The text below walks through data of publication PMC5548745, “Agonist-induced dimer dissociation as a macromolecular step in G protein-coupled receptor signaling” (Nature Communications, 2017).

Amino acid sequences for entries named in this document (tags omitted).
UniProt P63096: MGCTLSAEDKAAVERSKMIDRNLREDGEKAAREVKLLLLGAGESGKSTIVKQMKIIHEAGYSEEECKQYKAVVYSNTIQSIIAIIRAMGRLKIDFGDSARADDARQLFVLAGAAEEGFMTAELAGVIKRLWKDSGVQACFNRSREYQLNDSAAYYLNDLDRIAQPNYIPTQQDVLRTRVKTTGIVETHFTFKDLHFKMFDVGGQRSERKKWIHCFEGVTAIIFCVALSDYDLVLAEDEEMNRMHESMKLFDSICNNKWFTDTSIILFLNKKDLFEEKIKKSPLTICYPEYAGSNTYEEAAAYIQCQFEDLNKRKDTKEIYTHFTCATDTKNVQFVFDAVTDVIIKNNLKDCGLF

Positions count from the first letter of the chain named. In names and notes the source's numbering stands. These are yes or no findings as the source states them, for the method shown. Some entries that bind do so weakly or less than the wild type. For some assays here: Tags and fused reporters may be left off the sequences shown.

The target in test [1] is T1, FZD6-mCherry dimer mutant (D365A, R368A, Y369A) (human) (UniProt O60353).
T1 sequence: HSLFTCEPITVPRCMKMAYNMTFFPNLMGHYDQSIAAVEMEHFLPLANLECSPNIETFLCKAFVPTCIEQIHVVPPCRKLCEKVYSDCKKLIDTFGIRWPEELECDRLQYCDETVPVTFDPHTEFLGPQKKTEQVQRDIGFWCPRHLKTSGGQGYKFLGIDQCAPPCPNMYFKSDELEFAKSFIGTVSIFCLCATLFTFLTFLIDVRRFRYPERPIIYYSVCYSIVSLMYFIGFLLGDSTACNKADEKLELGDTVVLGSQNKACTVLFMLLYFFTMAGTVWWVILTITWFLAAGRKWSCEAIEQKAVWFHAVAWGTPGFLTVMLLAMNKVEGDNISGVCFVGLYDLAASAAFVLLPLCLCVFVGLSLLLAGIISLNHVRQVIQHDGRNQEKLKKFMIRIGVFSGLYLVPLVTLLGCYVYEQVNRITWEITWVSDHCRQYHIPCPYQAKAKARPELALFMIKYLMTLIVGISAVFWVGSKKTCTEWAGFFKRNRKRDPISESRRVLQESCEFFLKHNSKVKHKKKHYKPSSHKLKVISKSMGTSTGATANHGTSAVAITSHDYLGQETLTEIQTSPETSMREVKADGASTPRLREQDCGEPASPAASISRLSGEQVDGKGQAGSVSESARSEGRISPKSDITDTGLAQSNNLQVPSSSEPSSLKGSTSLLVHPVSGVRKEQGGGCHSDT
Nature of the test: dual color FRAP (dcFRAP) with chemical surface crosslinking; living HEK293 cells; FZD6 dimer mutant (mCherry) immobilised by chemical surface crosslinking; mobile fraction of the GFP-tagged intracellular partner.

Test [2] has as its target T2, Frizzled 6 (FZD6), wild type, expressed as V5-FZD6-mCherry and as FZD6-GFP (human) (UniProt O60353).
T2 sequence: T1 sequence with A347D, A350R, A351Y
As to the kind of experiment: fluorescence cross-correlation spectroscopy (FCCS); living HEK293 cells co-expressing FZD6-GFP and V5-FZD6-mCherry at low levels (10-1000 receptors per µm^2), no crosslinking; dynamic measurements before and after WNT-5A (300 ng ml^-1).

Test [3] addresses T2, Frizzled 6 (FZD6), wild type, expressed as V5-FZD6-mCherry and as FZD6-GFP (human). As to the kind of experiment: fluorescence correlation spectroscopy (FCS), transit diffusion time; living HEK293 cells expressing one GFP-tagged construct; porcupine inhibitor C59 5 µM overnight.
Test [4] has the same target. As to the kind of experiment: dual color FRAP (dcFRAP) with antibody surface crosslinking; as a1, with co-transfected HA-tagged TM1 (control) or TM5 minigene.
Test [5] shares this target. Nature of the test: dual color FRAP (dcFRAP) with antibody surface crosslinking; living HEK293 cells; V5-FZD6-mCherry immobilised at the surface with biotinylated anti-V5 antibody and avidin; mobile fraction of the co-expressed GFP construct before and after crosslinking; BE buffer, RT; also done with pan-DVL siRNA, with overexpressed DVL2-MYC, and 10-20 min after WNT-5A (300 ng ml^-1).

For Gαi1-GFP (from UniProt P63096 1-354), the binding result in test [1] is listed as “no binding”.

B1: Frizzled 6 (FZD6), wild type, expressed as V5-FZD6-mCherry and as FZD6-GFP (receptor, human, UniProt O60353 19-706, looked up)
chain: T1 sequence with A347D, A350R, A351Y
notes: Frizzled 6 (FZD6), human, Uniprot ID O60353; Two differently tagged copies of the same receptor are tested against each other, so they are written as one molecule; The FCS experiment used FZD6-GFP alone; also called FZD6 wt; source: HEK293, transiently transfected (Lipofectamine 2000), in living cells; not shown: V5 (on the crosslinked copy), N-terminal, kept; mCherry (on the crosslinked copy), …
With B1, the binding entry in test [2], in test [3], in test [4] and in test [5] was “binds” each time.

B2: FZD6 F337A mutant (receptor, UniProt O60353 19-706)
chain: T1 sequence with F319A, A347D, A350R, A351Y
B2: the binding entry in test [5] is “binds”.

B3: FZD6-GFP dimer control mutant (D365E, R368K, Y369F) (receptor, UniProt O60353 19-706)
chain: T1 sequence with A347E, A350K, A351F
Take B3: in test [5], the binding entry is “binds”.

As for KKLDASRYFVLLPLCLCVFVGLSLLLAGIISKKK [HA-tagged TM5 minigene of FZD6], the binding result in test [4] was “binds”.
